Consider 4 molecules from PMC6373471.

By UniProt entry, the sequences of proteins in these tests, tags left out.
UniProt Q9C9W9: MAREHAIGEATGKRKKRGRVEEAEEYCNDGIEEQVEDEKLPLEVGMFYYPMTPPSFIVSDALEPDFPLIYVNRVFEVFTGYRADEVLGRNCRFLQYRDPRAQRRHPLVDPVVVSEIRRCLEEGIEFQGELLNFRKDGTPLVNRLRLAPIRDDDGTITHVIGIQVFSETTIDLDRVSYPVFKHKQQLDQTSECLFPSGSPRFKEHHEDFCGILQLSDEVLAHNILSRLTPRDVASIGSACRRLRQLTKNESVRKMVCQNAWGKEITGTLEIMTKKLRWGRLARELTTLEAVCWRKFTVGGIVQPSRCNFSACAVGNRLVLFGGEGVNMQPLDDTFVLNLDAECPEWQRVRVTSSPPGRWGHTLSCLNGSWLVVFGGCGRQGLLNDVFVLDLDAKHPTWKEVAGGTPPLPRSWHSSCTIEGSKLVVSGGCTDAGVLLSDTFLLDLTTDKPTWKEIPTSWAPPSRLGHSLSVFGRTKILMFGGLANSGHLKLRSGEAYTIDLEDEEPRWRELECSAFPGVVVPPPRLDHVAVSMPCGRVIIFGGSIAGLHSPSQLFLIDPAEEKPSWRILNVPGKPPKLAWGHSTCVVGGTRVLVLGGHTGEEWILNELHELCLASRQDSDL
UniProt Q8W420: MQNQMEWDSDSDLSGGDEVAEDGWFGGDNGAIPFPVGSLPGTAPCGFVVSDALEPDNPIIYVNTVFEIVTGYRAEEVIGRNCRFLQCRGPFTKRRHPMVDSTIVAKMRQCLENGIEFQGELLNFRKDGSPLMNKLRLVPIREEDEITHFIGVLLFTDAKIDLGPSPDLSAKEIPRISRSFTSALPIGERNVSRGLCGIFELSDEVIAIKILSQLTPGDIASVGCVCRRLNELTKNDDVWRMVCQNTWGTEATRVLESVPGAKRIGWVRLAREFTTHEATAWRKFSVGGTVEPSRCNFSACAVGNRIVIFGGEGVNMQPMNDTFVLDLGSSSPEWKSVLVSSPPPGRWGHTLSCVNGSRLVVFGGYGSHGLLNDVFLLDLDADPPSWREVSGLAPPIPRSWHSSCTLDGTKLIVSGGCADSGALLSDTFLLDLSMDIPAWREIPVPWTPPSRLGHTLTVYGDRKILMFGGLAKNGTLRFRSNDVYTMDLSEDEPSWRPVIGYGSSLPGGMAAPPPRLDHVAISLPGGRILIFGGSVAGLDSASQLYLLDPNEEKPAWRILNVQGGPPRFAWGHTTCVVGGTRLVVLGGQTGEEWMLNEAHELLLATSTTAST
UniProt Q94BT6: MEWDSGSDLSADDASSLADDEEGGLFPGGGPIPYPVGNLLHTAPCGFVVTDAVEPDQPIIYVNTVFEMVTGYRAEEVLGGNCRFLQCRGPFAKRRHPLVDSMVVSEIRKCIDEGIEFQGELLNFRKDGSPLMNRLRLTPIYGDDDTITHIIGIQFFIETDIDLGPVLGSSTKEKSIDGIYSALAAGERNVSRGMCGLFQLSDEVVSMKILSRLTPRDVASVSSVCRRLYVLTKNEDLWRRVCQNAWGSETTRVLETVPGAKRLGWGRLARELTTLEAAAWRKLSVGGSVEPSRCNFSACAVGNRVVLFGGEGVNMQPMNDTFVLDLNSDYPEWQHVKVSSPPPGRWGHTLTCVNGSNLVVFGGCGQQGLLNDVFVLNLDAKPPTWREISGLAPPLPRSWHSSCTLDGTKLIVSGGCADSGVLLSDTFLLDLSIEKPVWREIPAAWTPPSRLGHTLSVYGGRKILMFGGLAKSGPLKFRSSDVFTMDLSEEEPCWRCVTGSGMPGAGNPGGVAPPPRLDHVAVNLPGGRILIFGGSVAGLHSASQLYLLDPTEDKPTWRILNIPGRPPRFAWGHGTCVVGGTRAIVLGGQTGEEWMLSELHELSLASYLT

No constants are given. Whether binding was seen depends on the method and setting. Some entries that bind do so weakly or less than the wild type.

Sequences and labels used below:
B1: GI‐FL, yeast two-hybrid prey (protein, UniProt Q9SQI2 1-1173)
chain: MASSSSSERWIDGLQFSSLLWPPPRDPQQHKDQVVAYVEYFGQFTSEQFPDDIAELVRHQYPSTEKRLLDDVLAMFVLHHPEHGHAVILPIISCLIDGSLVYSKEAHPFASFISLVCPSSENDYSEQWALACGEILRILTHYNRPIYKTEQQNGDTERNCLSKATTSGSPTSEPKAGSPTQHERKPLRPLSPWISDILLAAPLGIRSDYFRWCSGVMGKYAAGELKPPTIASRGSGKHPQLMPSTPRWAVANGAGVILSVCDDEVARYETATLTAVAVPALLLPPPTTSLDEHLVAGLPALEPYARLFHRYYAIATPSATQRLLLGLLEAPPSWAPDALDAAVQLVELLRAAEDYASGVRLPRNWMHLHFLRAIGIAMSMRAGVAADAAAALLFRILSQPALLFPPLSQVEGVEIQHAPIGGYSSNYRKQIEVPAAEATIEATAQGIASMLCAHGPEVEWRICTIWEAAYGLIPLNSSAVDLPEIIVATPLQPPILSWNLYIPLLKVLEYLPRGSPSEACLMKIFVATVETILSRTFPPESSRELTRKARSSFTTRSATKNLAMSELRAMVHALFLESCAGVELASRLLFVVLTVCVSHEAQSSGSKRPRSEYASTTENIEANQPVSNNQTANRKSRNVKGQGPVAAFDSYVLAAVCALACEVQLYPMISGGGNFSNSAVAGTITKPVKINGSSKEYGAGIDSAISHTRRILAILEALFSLKPSSVGTPWSYSSSEIVAAAMVAAHISELFRRSKALTHALSGLMRCKWDKEIHKRASSLYNLIDVHSKVVASIVDKAEPLEAYLKNTPVQKDSVTCLNWKQENTCASTTCFDTAVTSASRTEMNPRGNHKYARHSDEGSGRPSEKGIKDFLLDASDLANFLTADRLAGFYCGTQKLLRSVLAEKPELSFSVVSLLWHKLIAAPEIQPTAESTSAQQGWRQVVDALCNVVSATPAKAAAAVVLQAERELQPWIAKDDEEGQKMWKINQRIVKVLVELMRNHDRPESLVILASASDLLLRATDGMLVDGEACTLPQLELLEATARAIQPVLAWGPSGLAVVDGLSNLLKCRLPATIRCLSHPSAHVRALSTSVLRDIMNQSSIPIKVTPKLPTTEKNGMNSPSYRFFNAASIDWKADIQNCLNWEAHSLLSTTMPTQFLDTAARELGCTISLSQ

The assay has as its target T1, CDF6, full length, yeast two-hybrid bait (Arabidopsis thaliana) (UniProt Q9LQX4).
T1 sequence: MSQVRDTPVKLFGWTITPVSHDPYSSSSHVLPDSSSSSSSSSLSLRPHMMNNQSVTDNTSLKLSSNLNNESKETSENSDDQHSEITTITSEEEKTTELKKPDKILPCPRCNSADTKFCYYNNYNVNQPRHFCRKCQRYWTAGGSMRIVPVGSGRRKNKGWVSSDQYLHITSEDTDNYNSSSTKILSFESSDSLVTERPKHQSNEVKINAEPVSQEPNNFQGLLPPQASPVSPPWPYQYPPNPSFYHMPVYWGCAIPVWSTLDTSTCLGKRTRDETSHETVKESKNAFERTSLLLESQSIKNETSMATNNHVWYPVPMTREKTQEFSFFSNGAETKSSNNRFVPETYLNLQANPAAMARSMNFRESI
Kind of assay: two-hybrid; yeast two-hybrid: CDF6 as bait (pAS-GW, strain AH109), preys in strain Y187, mated; growth on -WL and -WLH media.
As for “FKF1, yeast two-hybrid prey (from UniProt Q9C9W9 1-619)”, the binding result was “binds”.

As to “LKP2, yeast two-hybrid prey (from UniProt Q8W420 1-611)”, the binding entry is “binds”.

For the molecule “ZTL, yeast two-hybrid prey (from UniProt Q94BT6 1-609)”, the binding result was “binds”.

As for B1, the binding entry was “binds”.
